Results taken from paper PMC5352051, “Identification of a novel Polo-like kinase 1 inhibitor that specifically blocks the functions of Polo-Box domain” (Oncotarget, 2016).
These are yes or no findings as the source states them, for the method shown. Binding calls can cover weak binding; strength is not graded here. Tags and fused reporters may be left off the sequences shown.

The chains behind the UniProt entries cited, without tags or fusion partners. Where a name states a change or a piece, a line headed by the entry shows the natural chain unless it says otherwise.
UniProt P53350: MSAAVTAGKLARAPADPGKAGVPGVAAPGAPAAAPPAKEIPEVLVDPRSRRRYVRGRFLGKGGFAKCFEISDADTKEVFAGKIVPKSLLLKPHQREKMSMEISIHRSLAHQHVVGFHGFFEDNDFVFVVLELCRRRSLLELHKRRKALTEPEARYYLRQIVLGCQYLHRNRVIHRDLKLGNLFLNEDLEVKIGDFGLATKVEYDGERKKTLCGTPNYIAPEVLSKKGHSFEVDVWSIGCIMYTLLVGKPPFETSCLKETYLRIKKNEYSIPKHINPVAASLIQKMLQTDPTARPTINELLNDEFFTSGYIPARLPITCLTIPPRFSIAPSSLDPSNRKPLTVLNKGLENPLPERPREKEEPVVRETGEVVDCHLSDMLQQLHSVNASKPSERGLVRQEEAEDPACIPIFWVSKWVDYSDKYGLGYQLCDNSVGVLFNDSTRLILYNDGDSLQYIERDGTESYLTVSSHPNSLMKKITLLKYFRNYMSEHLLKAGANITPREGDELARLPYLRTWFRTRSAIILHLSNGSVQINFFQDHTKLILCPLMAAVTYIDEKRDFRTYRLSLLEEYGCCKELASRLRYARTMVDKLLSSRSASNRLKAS

Target: T1, GST-Map205^PBM (276-325 aa) (Drosophila) (UniProt P23226)
T1 sequence: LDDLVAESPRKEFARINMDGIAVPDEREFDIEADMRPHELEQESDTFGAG
Assay: ELISA; GST-Map205^PBM (10 ug/mL) coated on a 96-well plate; His-tagged Plk1 PBD (3 ug/mL) pre-incubated 45 min at RT with T521 or DMSO, then added; detected with mouse anti-His antibody and anti-mouse IgG-HRP, OD450; both purified

Polo-Box domain (PBD) of Polo-like kinase 1 (Plk1), His-tagged (from UniProt P53350) (domain or fragment)
binding: binds
